Measured values published in PMC9260857.
Results are given in words; binding and its absence hold for the method and conditions named. In cells and extracts the contact can be indirect. Some entries that bind do so weakly or less than the wild type.

Sequences of proteins named here, by UniProt entry; tags and fusion partners are left off.
UniProt Q91V45: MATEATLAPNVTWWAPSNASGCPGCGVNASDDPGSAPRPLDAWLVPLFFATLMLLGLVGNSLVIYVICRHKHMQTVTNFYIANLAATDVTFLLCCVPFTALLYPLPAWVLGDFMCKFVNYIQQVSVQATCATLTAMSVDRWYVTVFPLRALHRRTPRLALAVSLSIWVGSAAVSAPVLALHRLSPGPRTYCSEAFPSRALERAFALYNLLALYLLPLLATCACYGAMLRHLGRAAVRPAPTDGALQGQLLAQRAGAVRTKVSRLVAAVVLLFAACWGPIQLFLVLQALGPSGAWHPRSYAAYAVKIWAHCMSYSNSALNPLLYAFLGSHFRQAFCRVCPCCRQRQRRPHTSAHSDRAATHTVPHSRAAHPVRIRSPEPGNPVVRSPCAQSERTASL
UniProt A0A140LI88: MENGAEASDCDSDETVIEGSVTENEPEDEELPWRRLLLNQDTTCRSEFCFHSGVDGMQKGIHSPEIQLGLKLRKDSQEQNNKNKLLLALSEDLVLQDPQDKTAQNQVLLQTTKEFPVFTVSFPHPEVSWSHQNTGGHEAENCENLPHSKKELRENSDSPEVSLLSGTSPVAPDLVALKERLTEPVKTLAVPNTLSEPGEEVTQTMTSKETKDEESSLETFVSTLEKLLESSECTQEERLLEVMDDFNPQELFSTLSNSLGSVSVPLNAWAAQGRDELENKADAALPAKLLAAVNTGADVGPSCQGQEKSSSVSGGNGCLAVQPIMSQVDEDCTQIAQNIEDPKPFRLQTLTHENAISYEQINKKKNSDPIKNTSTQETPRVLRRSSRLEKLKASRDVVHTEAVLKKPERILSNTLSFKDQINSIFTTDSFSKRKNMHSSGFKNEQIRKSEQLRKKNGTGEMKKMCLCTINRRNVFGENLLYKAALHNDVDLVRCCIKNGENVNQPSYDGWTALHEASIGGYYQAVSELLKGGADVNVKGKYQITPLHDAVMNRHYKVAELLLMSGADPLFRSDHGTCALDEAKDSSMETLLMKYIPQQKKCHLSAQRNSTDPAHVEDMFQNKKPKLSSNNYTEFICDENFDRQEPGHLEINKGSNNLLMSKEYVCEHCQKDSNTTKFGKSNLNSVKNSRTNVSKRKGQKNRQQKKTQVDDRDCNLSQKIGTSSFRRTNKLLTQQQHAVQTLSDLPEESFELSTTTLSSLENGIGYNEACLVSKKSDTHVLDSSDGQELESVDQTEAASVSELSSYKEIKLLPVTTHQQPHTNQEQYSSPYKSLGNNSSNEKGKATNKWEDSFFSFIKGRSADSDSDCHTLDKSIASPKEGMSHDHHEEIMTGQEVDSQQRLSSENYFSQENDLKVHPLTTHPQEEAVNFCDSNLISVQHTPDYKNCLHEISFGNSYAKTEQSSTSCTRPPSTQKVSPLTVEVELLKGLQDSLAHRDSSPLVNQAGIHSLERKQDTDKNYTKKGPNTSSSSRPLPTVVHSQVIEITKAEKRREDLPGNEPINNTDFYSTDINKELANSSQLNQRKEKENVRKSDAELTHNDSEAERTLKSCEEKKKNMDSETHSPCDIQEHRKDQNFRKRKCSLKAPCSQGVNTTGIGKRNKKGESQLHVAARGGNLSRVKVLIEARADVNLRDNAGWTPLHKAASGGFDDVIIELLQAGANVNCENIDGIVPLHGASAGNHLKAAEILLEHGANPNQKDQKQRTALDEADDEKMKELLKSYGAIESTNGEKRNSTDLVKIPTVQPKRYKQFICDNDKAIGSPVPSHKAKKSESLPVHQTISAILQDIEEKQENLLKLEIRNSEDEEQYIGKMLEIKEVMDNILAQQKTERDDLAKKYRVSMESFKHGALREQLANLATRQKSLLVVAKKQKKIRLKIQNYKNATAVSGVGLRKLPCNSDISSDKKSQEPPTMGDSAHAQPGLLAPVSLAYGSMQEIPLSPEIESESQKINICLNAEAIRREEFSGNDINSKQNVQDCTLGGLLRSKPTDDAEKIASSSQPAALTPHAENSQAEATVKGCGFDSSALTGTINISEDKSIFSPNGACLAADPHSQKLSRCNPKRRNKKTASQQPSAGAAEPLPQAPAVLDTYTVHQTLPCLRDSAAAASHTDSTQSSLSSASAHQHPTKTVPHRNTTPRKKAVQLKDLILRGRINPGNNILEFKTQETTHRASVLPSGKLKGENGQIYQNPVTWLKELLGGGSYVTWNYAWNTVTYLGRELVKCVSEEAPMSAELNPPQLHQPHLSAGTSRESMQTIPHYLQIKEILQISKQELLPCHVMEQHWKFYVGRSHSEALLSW

Key:
[1] = molecular target: KISS1 receptor (mouse (endogenous in primary Leydig cells)) (UniProt Q91V45); test: co-IP; 500 ug of RIPA lysate of murine primary Leydig cells (untreated, or treated with Kp-10 0.1 uM alone or with Kp-234 1 uM) incubated with 2 ug of KISS1R antibody, ANKRD31 antibody or control IgG overnight at 4 C, Protein A/G PLUS agarose beads, washed in TBS pH 7.6, Western blot for KISS1R, ANKRD31 and F-actin
[2] = molecular target: ANKRD31 (mouse (endogenous in primary Leydig cells)); test: as above

Substance | binding [1] | binding [2]
ANKRD31 (from UniProt A0A140LI88 1-1857) | binds | 
KISS1 receptor (from UniProt Q91V45 1-396) |  | binds
